Measurements from patent US6455250B1, “Endonuclease compositions and methods of use” (The Regents of the University of California, priority 1997, dated 2002).
Construct, isoform or probe ends are uncertain for at least one entry. A weaker result is weaker than the reference pair of the same experiment.

System: Endo-SR (murine, partially purified Fraction IV, DNase II-like) (Mus musculus)
Assay: enzyme reaction in vitro
Conditions: purified native protein, label: 32P

Row | Sequence | activity on this sequence (strong double cleavage abolished, single nicks at TGAGC only, no antisense cleavage, variant of SµO-5R1) | activity on this sequence (strong double cleavage at TGGGG, weaker single cleavages at TGAGC, antisense cut opposite TGGGG, 37 C)
1 | CTAGAGCTGAGCTGAGCTGAGCTGAGCT / CTAGAGCTCAGCTCAGCTCAGCTCAGCT [SµO-5R2] | less active | –
2 | CTAGAGCTGGGGTGAGCTGAGCTGAGCT / CTAGAGCTCAGCTCAGCTCACCCCAGCT [SµO-5R1] | – | active
